Source: US8722923B2, “Conjugates for treating neurodegenerative diseases and disorders” (Ramot at Tel-Aviv University Ltd., priority 2008, dated 2014)
Counter-ions that a name gives are not always drawn. At least one structure is not confirmed: it was looked up by name or label, or the drawing left a doubt.

How the values were obtained:
[1] = Hygroscopicity of acid addition salts; assay type: physicochemical; conditions: acid addition salts as isolated
Source text: The hydrochloride salts of Compounds 6, 8a, 11, 13, 14, 16, 18 and 21 were identified as hygroscopic. […] The basis for this assumption was that the addition salt of an aromatic acid would be less hygroscopic than that of the corresponding hydrochloric acid addition salt. Thus, the butyl ester, Compound 20 was Boc-deprotected with 3 equivalents of benzenesulfonic acid in […].

MPTP acute model mice [2] = assay: Experiment 3: RotaRod test, MPTP acute model (BL-1023*); assay type: in vivo, C57/BL/6J mice; conditions: for latency in the rotarod test shortened by MPTP: day 12, after initiation of treatment, per os
Description: Mice were administered the following treatments: saline (Control), MPTP+saline (MPTP), MPTP+L-DOPA 30 mg/kg (MPTP+Dopa), MPTP+L-DOPA 30 mg/kg+GABA 18.4 mg/kg (MPTP+G+D) MPTP+BL1023* 48.4 mg/kg (MPTP+1023 30) and MPTP+BL-1023* 24.2 mg/kg (MPTP+BL1023 15). The MPTP neurotoxin was administered on day 0, with 4 IP injections (each injection contained 20 mg/kg, 5 ml/kg) in saline. The various treatments or saline were administered on day 7, 9, 11 and 13 (total of 4 treatments). Each group of mice (n=10) was subjected to the RotaRod test, on day 6 (before initiation of treatment, FIG. 9A) and day 12 (after initiation of treatment, FIG. 9B) and the observed average duration on Rod, tested three times, are presented.
Acute model: On day 1, C57/BL mice received 4× […] injections of 20 mg/kg MPTP-HCl (Sigma), dissolved in saline solution, at 2 hours intervals.
RotoRod Test: The test measures and records motor coordination of rats and mice using the natural fear of falling motivation. RotoRod (San Diego Industries, San Diego, Calif., USA) was set on 16 rpm speed and accelerated to maximum speed of 25 rpm. The time until the mouse fall was measured up to maximum 4 minutes. The measurements were performed three times for each mouse and the average was calculated. Four animals were placed on the rod on individual lanes in the RotoRod enclosure. Photo beams were embedded in each of the four lanes of the enclosure. When the animal falls from the rotating rod, the photo beams were broken and the Rota-Rod recorded the animal's latency to fall. When the photo beams in all four lanes have been broken, the rod stopped rotating.

MPTP acute model mice [3] = assay: Experiment 3: open field test, MPTP acute model (BL-1023*); assay type: in vivo, C57/BL/6J mice; conditions: day 13
MPTP acute model mice [4] = assay: Experiment 3: tyrosine hydroxylase immunohistochemistry of striatum and substantia nigra, MPTP acute model; assay type: in vivo, C57/BL/6J mice; conditions: MPTP-treated mice, TH staining
Description: FIG. 13 presents a bar graph showing the effect of BL-1023* administration on the neuronal density in the stratium, as assessed from Tyrosine Hydroxylase staining. Mice were administered the following treatments: saline (control), MPTP+saline (MPTP), MPTP+L-DOPA 30 mg/kg (MPTP+L-DOPA), MPTP+L-DOPA 30 mg/kg+GABA 18.4 mg/kg (MPTP+L-DOPA+GABA), MPTP+BL1023* 48.4 mg/kg (denoted MPTP+1023 30) and MPTP+BL-1023* 24.2 mg/kg (denoted MPTP+BL1023 15). The MPTP neurotoxin was administered on day 0, with 4 IP injections (each injection contained 20 mg/kg, 5 ml/kg) in saline. The various treatments or saline were administered on day 7, 9, 11 and 13 (total of 4 treatments). Three mice, from each treatment group, and four mice from the control group, were sacrificed on day 15 and subjected to immunohystochemistry for tyrosine hydroxylase of the stratium according to the protocol described in the Examples section hereinbelow. The intensity of Tyrosine Hyroxylase (TH) staining, in the striatum of the treated mice is presented as the average of Intensity Optical Density (IOD) and SE obtained for the total stained area.
FIG. 15 presents a bar graph showing the effect of BL-1023* administration on the neuronal density in the substantia nigra, as assessed from Tyrosine Hydroxylase staining. […]

[5] = tested on: MPTP-Induced Parkinson's Disease Model in Mice; assay: Example 2: MPTP acute toxicity model, tyrosine hydroxylase immunoreactive cells in the SNpc; assay type: in vivo, mice strain C57/bl; conditions: day 7, MPTP 4 x 20 mg/kg IP day 0, S.C once daily days 0-7, 40 mg/kg L-DOPA or equimolar
Description: Mice were administered 4 injections IP of MPTP (each injection contained 20 mg/kg, 5 ml/kg) or saline alone (control) at 2 hours intervals on day 0. Mice were then administered subcutaneously test solutions (TI) (either saline, L-DOPA or BL-1023) once daily throughout the 8 successive treatment days (days 0-7). On day 7, the mice were sacrificed and their brains were removed for immunohistochemistry analysis of the number of tyrosine hyroxylase immunostained cells at the level of the Substantia Nigra (SNpc).
Young adult (7-8 weeks old) male mice strain C57/bl were acclimated for one week prior to MPTP initiation. During acclimation and throughout the entire study duration, animals were housed within a limited access rodent facility and kept in groups of maximum 5 mice in polypropylene cages (23×17×14 cm), fitted with solid bottoms and filled with wood shavings as bedding material. Animals were provided ad libitum a commercial rodent diet and free access to drinking water, supplied to each cage via polyethylene bottles with stainless steel sipper tubes. […]
Immunohistochemistry staining was performed using Rabbit anti tyrosin hydroxylase (1:100). […] Quantitative analysis was effected by counting of immunoreactive cells at the widest dimension of the SNpc lateral to the roots of the third cranial nerve separating medial and lateral SNpc at the level of interpreduncular nucleus.

[6] = Stability study of Compound 5 (BL-1023) in open and sealed vials on the bench top (HPLC, KF); assay type: physicochemical
[7] = kept in an open vial on bench top, 1 day
[8] = kept in an open vial on bench top, 3 days
[9] = kept in an open vial on bench top, 4 days
[10] = kept in an open vial on bench top, starting point
[11] = kept sealed vial on bench top, 7 days
[12] = kept sealed vial on bench top, starting point
[13] = open vial on bench top, 7 days, part kept as one solid piece

## CCCCOC(=O)C(Cc1ccc(O)c(O)c1)NC(=O)CCCN (centres unmarked) [BL-1023*, Butyl-2-(4-Aminobutanamide)-3-(3,4-dihydroxyphenyl)propanoate hydrochloride]
[1]
  hygroscopicity: hygroscopic
MPTP acute model mice [2]; hydrochloride
  latency in the rotarod test shortened by MPTP: protective effect
MPTP acute model mice [2]; listed as Compound 16, hydrochloride
  latency in the rotarod test shortened by MPTP: improved level of performance
MPTP acute model mice [2]; dose of 48.4 mg/kg, day 12, *p<0.05
  MPTP-dependent reduction in duration on the Rod: able to reverse
MPTP acute model mice [3]
  behavioral signal in the open field (velocity, distance moved): not in the open field
MPTP acute model mice [4]
  neuronal density in the substantia nigra and stratium: reverse the MPTP dependent reduction in neuronal density

## NCCCC(=O)N[C@@H](Cc1ccc(O)c(O)c1)C(=O)O [BL-1023]
[5]
  Number of TH Cells: substantially higher
[6]; [7]
  HPLC: HPLC: 98.9%
  KF: KF: 3.8%
[6]; [8]
  HPLC: HPLC: 99.4%
  KF: KF: 5%
[6]; [9]
  HPLC: HPLC: 99.4%
  KF: KF: 5%
[6]; [10]
  HPLC: HPLC: 99.4%
  KF: KF: 0.63%
[6]; kept sealed vial on bench top, 4 days
  KF: KF: 0.58%
[6]; [11]
  HPLC: HPLC: 98.7%
  KF: KF: 0.41%
[6]; [12]
  HPLC: HPLC: 99.4%
  KF: KF: 0.63%
[6]; open vial on bench top, 7 days, part broken up (powder)
  HPLC: HPLC: 99.0%
[6]; [13]
  HPLC: HPLC: 99.0%
  KF: KF: 5.9%
